Experimental data as given in patent US20110129478A1.
No constants are given. Whether binding was seen depends on the method and setting. Some entries that bind do so weakly or less than the wild type.

Chains of the proteins cited; added tags and fusions are not shown. Lines headed by an entry give the natural chain unless they say otherwise; changes in a name come on top.
UniProt P15814: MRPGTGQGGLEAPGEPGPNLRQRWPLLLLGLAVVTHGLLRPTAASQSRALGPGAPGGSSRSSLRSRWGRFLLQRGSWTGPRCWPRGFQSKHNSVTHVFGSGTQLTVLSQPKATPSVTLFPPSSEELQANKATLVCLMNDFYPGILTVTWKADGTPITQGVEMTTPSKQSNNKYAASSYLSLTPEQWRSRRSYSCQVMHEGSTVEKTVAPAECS

Target: human CD179b protein (antigen protein expressed from the SRaIgG1Fc vector, human IgG1 Fc fusion) (human) (UniProt P15814)
Assay: ELISA, plate coated with 1 ug/ml human CD179b protein, hybridoma culture supernatant

B1: anti-CD179b monoclonal antibody #8 (antibody, mouse IgG3, V domains shown)
VH: EVQLQQSGPELVKPGASVKMSCKASGYTFTDYYMKWMKQSHGKSLEWIGDINPNNGGTTYNQKFKGKATLTVDKSSSTAYMQLNSLTSEDSAVYYCARDYGYGYFDYWGQGTTLTVSS
VL: DIQMTQSPASLSVSVGETVTITCRASENIYSNLAWYQQKQGKSPQLLVYAATNLADGVPSRFSGSGSGTQYSLKINSLQSEDFGSYYCQHFWGTWTFGGGTTLEIK
- binding: binds
